Reference: US20220401460A1, “MODULATING RESISTANCE TO BCL-2 INHIBITORS” (Dana-Farber Cancer Institute, Inc., priority 2018, published 2022)
At least one compound was matched to its structure with a doubt left. Some results were stated once for a whole list of compounds, not compound by compound.

Experiments:
Assay type in all cases: cell-based, human
OCI-Ly1-S cells [1] = assay: Cell Titer-Glo viability assay and Chou-Talalay synergy analysis, parental OCI-Ly1-S cells; details: for combination index (synergy with venetoclax): Chou-Talalay method
[2] = system: knockout and overexpression OCI-Ly1 cell lines; assay: Viability/growth of single-gene knockout and overexpression OCI-Ly1 cell lines; details: all generated knockout and overexpression lines
Method: (§1) Cell viability assay. The Cell Titer-Glo Luminescent Cell Viability Assay (Promega) was used to determine the relative number of viable cells after drug treatment. 0.2×10^6 cells/mL were seeded in a 24 well-plate and treated with drugs for 24 or 48 hours. The viability assay was conducted using the manufacturer's protocol after treatment. Values were normalized to DMSO-treated cells. Plates were read on a SpectraMax M3 reader (Molecular Devices).
Cloning of sgRNA vectors. […]
Generation of engineered cell lines. […] As confirmation that the engineered cell lines expressed the expected alterations, Applicants: (i) evaluated the expression of the targeted protein by western-blotting (FIG. 6d), and (ii) for the CRISPR-Cas9 engineered cell lines, performed targeted DNA sequencing for the CRISPR target sites before and after 2 weeks of exposure to venetoclax (100 nM), and assessed the proportion of frameshift indels (FIG. 6g). […] Following PCR, samples were purified with Agencourt AMPure XP beads (Beckman Coulter) and quantified on a Bioanalyzer (Agilent) with High Sensitivity DNA chips. Sample libraries were diluted to 4 nM, pooled, and ran on the Illumina MiSeq platform using single-end sequencing with the following parameters: read 1: 296nt, index 1: 6nt.

OCI-Ly1-R cells [3] = assay: Seahorse oxygen consumption (OCR) and extracellular acidification rate (ECAR), OCI-Ly1-R; details: venetoclax 100 nM
OCI-Ly1-S cells [4] = assay: Seahorse oxygen consumption (OCR) and extracellular acidification rate (ECAR), OCI-Ly1-S; details: venetoclax 100 nM
Method: Measurement of oxygen consumption and extracellular acidification rate. For each condition, 1.25×10^5 cells were counted and plated on a Seahorse plate coated with Cell-Tak (Corning Life Sciences) in Seahorse XF DMEM media (Agilent). OCR and ECAR were recorded using a Seahorse XF96 Analyzer (Agilent) for 24 consecutive measurements. OCR is measured before and after the addition of inhibitors to assess mitochondrial function by deriving several parameters of mitochondrial respiration: (i) basal respiration, (ii) ATP-linked respiration and proton leak respiration (after 3 μM oligomycin [Sigma], a complex V inhibitor) and (iii) maximal respiration (after 1 μM carbonyl cyanide m-chlorophenyl hydrazine (CCCP) [Sigma], a protonophore).
To measure the effect of venetoclax on OCR/ECAR, cells were pre-treated for 1 h with […] of zVAD-FMK (Abcam) or left untreated and OCR/ECAR were recorded for 4 measurements before injection of venetoclax at a final concentration of 100 nM. DMSO injection was used as control.

OCI-Ly1-R cells [5] = assay: Cell Titer-Glo viability assay, venetoclax-resistant OCI-Ly1-R cells; details: combination with venetoclax
[6] = system: ID3 knockout OCI-Ly1 cells; assay: Viability of single-cell clones from ID3 knockout OCI-Ly1 cells; details: single cell clones from ID3 knockout line, viability at 24 hours
Method: as §1
Single-cell cloning of the ID3 knockout. OCI-Ly1 cells was performed using […] dilution strategy. Cells from the bulk ID3 OCI-Ly1 were seeded at a concentration of 0.5 cells/well in a 96-well plate (5 plates per cell line). To investigate the presence of mutations, 6 clones per sgRNA were analyzed by PCR and Sanger sequencing using primers flanking the target sites for the sgRNAs (Forward primer: 5′-[…]-3′ (SEQ ID NO:1); Reverse:5′-[…]-3′ (SEQ ID NO:2)). The absence of ID3 protein were confirmed in clones harboring loss-of-function mutations by western blot (FIG. 8d). Three different knockout single-cell clones for each sgRNA were used for further functional studies.

| SMILES | combination index (synergy with venetoclax) (OCI-Ly1-S cells [1]) | cumulative growth over 10 days of in vitro venetoclax treatment [2] | immediate decrease in oxygen consumption following venetoclax (OCI-Ly1-R cells [3]) | immediate increase in ECAR following venetoclax (OCI-Ly1-R cells [3]) | change in ECAR following venetoclax (OCI-Ly1-S cells [4]) | restoration of venetoclax sensitivity (OCI-Ly1-R cells [5]) | sensitivity to the combination with venetoclax vs control cells [6] | synergy with venetoclax (OCI-Ly1-S cells [1]) |
| --- | --- | --- | --- | --- | --- | --- | --- | --- |
| CC[C@H]1/C=C/C=C/C[C@@H](C)[C@H](O)[C@@](C)(O)C(=O)[C@@H](C)[C@H](O)[C@@H](C)C(=O)[C@@H](C)[C@H](O)[C@@H](C)/C=C/C(=O)O[C@@H]2[C@H](C)[C@H](CC1)O[C@]1(CC[C@H](C)[C@H](C[C@@H](C)O)O1)[C@H]2C [oligomycin] | < 1 |  |  |  |  |  |  |  |
| CC1(C)CCC(CN2CCN(c3ccc(C(=O)NS(=O)(=O)c4ccc(NCC5CCOCC5)c([N+](=O)[O-])c4)c(Oc4cnc5[nH]ccc5c4)c3)CC2)=C(c2ccc(Cl)cc2)C1 [venetoclax] |  | increased cumulative growth | not | not | immediate increase |  |  |  |
| c1cc(-c2cnn3cc(-c4ccc(OCCN5CCCCC5)cc4)cnc23)ccn1 [dorsomorphin] | < 1 |  |  |  |  | restore sensitivity to venetoclax | more sensitive | synergized |
